# Assay results published in paper PMC7862700.
# By UniProt entry, the sequences of proteins in these tests, tags left out. Where a name states a change or a piece, a line headed by the entry shows the natural chain unless it says otherwise.
# UniProt Q9Y603: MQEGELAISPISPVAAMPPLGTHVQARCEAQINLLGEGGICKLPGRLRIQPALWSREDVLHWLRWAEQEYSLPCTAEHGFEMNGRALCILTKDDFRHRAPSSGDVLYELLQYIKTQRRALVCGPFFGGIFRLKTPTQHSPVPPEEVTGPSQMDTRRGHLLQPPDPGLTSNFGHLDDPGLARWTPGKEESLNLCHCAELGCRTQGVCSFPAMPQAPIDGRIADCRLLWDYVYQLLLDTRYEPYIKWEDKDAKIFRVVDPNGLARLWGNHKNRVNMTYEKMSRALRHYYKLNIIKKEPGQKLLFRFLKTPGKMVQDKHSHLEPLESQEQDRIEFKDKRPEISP
# UniProt P41212: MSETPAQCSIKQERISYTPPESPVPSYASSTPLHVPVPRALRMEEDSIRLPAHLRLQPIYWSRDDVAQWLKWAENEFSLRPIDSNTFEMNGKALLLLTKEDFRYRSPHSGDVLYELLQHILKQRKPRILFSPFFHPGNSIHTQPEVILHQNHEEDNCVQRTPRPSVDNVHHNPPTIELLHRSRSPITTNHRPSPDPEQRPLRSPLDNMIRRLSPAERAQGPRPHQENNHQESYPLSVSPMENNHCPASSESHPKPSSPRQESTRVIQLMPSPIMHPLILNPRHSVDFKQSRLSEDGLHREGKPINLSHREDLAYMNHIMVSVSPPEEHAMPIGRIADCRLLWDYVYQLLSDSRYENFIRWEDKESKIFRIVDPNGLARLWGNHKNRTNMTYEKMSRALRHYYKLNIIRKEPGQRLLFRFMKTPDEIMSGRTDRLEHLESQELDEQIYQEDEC
# The list shows a part of the results, in another mix than the full data. At the low end of the ranking, values are background and their order means little.
# Experiments:
# Test in all cases: DAPPL (digital affinity profiling via proximity ligation, sequencing)
# Details in all cases: 10 mM Tris-HCl pH 7.5, 50 mM NaCl, 1 mM DTT, 4% glycerol, room temperature, 30 min; GST-TFs on glutathione beads, 16-mer random dsDNA library, 0.1% …; high values mean tight binding; double strand, one strand shown; scale: fold enrichment (6-mer frequency, TF over GST control)
# ELF3 = biological target: T1, ELF3 (UniProt P78545)
# T1 sequence: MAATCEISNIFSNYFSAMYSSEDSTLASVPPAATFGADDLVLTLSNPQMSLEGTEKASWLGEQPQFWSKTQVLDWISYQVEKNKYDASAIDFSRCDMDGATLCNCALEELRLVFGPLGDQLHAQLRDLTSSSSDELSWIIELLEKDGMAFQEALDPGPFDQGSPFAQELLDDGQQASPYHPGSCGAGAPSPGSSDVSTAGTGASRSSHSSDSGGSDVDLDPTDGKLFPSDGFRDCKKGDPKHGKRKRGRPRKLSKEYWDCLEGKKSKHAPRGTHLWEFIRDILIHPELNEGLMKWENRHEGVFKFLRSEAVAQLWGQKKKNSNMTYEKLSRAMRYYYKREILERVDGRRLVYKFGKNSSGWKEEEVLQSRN
# ETV7 = ETV7 (UniProt Q9Y603)
# ETV6 = ETV6 (UniProt P41212)
sequence,measurement,setting,value
GCGAGT,binding signal,ELF3,0.505
same,binding signal,ETV7,0.714
same,binding signal,ETV6,0.57
GGCGAG,binding signal,ELF3,0.48
same,binding signal,ETV7,0.593
same,binding signal,ETV6,0.515
AGGACA,binding signal,ELF3,0.84
same,binding signal,ETV7,0.955
same,binding signal,ETV6,0.879
CGGCGT,binding signal,ELF3,0.868
same,binding signal,ETV7,0.841
same,binding signal,ETV6,0.936
CAGTGG,binding signal,ELF3,0.545
same,binding signal,ETV7,0.509
same,binding signal,ETV6,0.478
TCGGCG,binding signal,ELF3,0.489
same,binding signal,ETV7,0.573
same,binding signal,ETV6,0.491
GCCAGT,binding signal,ELF3,0.324
same,binding signal,ETV7,0.361
same,binding signal,ETV6,0.321
AGAGGG,binding signal,ELF3,0.756
same,binding signal,ETV7,0.822
same,binding signal,ETV6,0.739
AAGAGG,binding signal,ELF3,0.979
same,binding signal,ETV7,0.891
same,binding signal,ETV6,0.895
GAGTAT,binding signal,ELF3,0.586
same,binding signal,ETV7,0.665
same,binding signal,ETV6,0.58
AGTCCG,binding signal,ELF3,0.593
same,binding signal,ETV7,0.529
same,binding signal,ETV6,0.593
CGTGGA,binding signal,ELF3,0.446
same,binding signal,ETV7,0.539
same,binding signal,ETV6,0.529
GACATA,binding signal,ELF3,0.97
same,binding signal,ETV7,0.878
same,binding signal,ETV6,0.906
TGAGTG,binding signal,ELF3,0.388
same,binding signal,ETV7,0.419
same,binding signal,ETV6,0.447
CCGTAG,binding signal,ELF3,0.915
same,binding signal,ETV7,0.882
same,binding signal,ETV6,0.894
TAAGTG,binding signal,ELF3,0.786
same,binding signal,ETV7,0.856
same,binding signal,ETV6,0.768
CGGAGA,binding signal,ELF3,0.206
same,binding signal,ETV7,0.26
same,binding signal,ETV6,0.194
TGAGAC,binding signal,ELF3,0.539
same,binding signal,ETV7,0.523
same,binding signal,ETV6,0.505
GGATCG,binding signal,ELF3,0.596
same,binding signal,ETV7,0.607
same,binding signal,ETV6,0.597
CAGTTG,binding signal,ELF3,0.449
same,binding signal,ETV7,0.504
same,binding signal,ETV6,0.496
GTAGCC,binding signal,ELF3,1.06
same,binding signal,ETV7,0.95
same,binding signal,ETV6,0.897
AGCTGG,binding signal,ELF3,0.997
same,binding signal,ETV7,0.915
same,binding signal,ETV6,0.896
ACGAGT,binding signal,ELF3,0.776
same,binding signal,ETV7,0.758
same,binding signal,ETV6,0.788
TCGTGC,binding signal,ELF3,0.743
same,binding signal,ETV7,0.83
same,binding signal,ETV6,0.843
GGCAAA,binding signal,ELF3,0.965
same,binding signal,ETV7,0.936
same,binding signal,ETV6,0.972
TAGCCA,binding signal,ELF3,0.951
same,binding signal,ETV7,0.786
same,binding signal,ETV6,0.748
GGACAC,binding signal,ELF3,0.766
same,binding signal,ETV7,0.832
same,binding signal,ETV6,0.769
CTAGTC,binding signal,ELF3,0.831
same,binding signal,ETV7,0.864
same,binding signal,ETV6,0.675
TAGCCG,binding signal,ELF3,0.858
same,binding signal,ETV7,0.986
same,binding signal,ETV6,0.87
GACGAG,binding signal,ELF3,0.456
same,binding signal,ETV7,0.49
same,binding signal,ETV6,0.51
GGCTGT,binding signal,ELF3,0.852
same,binding signal,ETV7,0.925
same,binding signal,ETV6,0.757
CAAGTG,binding signal,ELF3,0.782
same,binding signal,ETV7,0.814
same,binding signal,ETV6,0.724
CCAGAC,binding signal,ELF3,0.557
same,binding signal,ETV7,0.608
same,binding signal,ETV6,0.634
ATCAGT,binding signal,ELF3,0.919
same,binding signal,ETV7,0.874
same,binding signal,ETV6,0.825
GAAGAG,binding signal,ELF3,0.892
same,binding signal,ETV7,0.92
same,binding signal,ETV6,0.928
GTGGGC,binding signal,ELF3,0.538
same,binding signal,ETV7,0.739
same,binding signal,ETV6,0.825

# For reference, some entries already given.
sequence,measurement,setting,value
GCGAGT,binding signal,ETV6,0.57
GGCGAG,binding signal,ELF3,0.48
same,binding signal,ETV7,0.593
same,binding signal,ETV6,0.515
